In publication PMC7181751:
Results are given in words; binding and its absence hold for the method and conditions named. Binding seen in cells or lysates may run through a third protein. Some entries that bind do so weakly or less than the wild type.

T1: Boc (bioregional Cdon-binding protein), endogenous (mouse (endogenous in NIH3T3)) (UniProt Q6AZB0)
T1 sequence: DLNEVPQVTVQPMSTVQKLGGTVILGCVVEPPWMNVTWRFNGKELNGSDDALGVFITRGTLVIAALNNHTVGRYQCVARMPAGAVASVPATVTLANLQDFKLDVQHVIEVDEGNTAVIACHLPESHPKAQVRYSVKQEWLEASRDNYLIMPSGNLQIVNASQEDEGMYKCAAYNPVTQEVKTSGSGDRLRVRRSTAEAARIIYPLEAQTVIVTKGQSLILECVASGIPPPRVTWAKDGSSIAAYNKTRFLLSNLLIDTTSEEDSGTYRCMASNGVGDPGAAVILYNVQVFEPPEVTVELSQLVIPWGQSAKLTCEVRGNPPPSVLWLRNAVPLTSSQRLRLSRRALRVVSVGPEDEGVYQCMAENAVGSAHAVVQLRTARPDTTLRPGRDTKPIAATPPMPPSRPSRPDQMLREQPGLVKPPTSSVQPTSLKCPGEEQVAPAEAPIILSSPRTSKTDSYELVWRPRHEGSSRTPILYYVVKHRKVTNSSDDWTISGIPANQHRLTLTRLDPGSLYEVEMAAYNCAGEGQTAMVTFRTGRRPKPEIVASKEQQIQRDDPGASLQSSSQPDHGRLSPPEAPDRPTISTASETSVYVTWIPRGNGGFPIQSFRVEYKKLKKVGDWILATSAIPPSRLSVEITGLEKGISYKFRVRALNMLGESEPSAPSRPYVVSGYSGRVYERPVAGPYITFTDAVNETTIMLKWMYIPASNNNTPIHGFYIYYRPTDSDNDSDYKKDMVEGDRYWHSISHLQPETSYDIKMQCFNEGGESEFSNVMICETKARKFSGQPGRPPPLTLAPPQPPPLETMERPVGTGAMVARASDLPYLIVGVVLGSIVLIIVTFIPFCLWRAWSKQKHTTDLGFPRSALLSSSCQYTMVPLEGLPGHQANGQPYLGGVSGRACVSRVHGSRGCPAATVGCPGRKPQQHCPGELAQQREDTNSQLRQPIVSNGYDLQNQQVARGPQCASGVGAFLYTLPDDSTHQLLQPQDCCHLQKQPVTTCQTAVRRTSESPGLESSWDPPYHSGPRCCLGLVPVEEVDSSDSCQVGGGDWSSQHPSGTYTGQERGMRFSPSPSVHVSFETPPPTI

T2: mouse Ptch1 (pcDNA3-mPtch1) (mouse), Q61115
T2 chain: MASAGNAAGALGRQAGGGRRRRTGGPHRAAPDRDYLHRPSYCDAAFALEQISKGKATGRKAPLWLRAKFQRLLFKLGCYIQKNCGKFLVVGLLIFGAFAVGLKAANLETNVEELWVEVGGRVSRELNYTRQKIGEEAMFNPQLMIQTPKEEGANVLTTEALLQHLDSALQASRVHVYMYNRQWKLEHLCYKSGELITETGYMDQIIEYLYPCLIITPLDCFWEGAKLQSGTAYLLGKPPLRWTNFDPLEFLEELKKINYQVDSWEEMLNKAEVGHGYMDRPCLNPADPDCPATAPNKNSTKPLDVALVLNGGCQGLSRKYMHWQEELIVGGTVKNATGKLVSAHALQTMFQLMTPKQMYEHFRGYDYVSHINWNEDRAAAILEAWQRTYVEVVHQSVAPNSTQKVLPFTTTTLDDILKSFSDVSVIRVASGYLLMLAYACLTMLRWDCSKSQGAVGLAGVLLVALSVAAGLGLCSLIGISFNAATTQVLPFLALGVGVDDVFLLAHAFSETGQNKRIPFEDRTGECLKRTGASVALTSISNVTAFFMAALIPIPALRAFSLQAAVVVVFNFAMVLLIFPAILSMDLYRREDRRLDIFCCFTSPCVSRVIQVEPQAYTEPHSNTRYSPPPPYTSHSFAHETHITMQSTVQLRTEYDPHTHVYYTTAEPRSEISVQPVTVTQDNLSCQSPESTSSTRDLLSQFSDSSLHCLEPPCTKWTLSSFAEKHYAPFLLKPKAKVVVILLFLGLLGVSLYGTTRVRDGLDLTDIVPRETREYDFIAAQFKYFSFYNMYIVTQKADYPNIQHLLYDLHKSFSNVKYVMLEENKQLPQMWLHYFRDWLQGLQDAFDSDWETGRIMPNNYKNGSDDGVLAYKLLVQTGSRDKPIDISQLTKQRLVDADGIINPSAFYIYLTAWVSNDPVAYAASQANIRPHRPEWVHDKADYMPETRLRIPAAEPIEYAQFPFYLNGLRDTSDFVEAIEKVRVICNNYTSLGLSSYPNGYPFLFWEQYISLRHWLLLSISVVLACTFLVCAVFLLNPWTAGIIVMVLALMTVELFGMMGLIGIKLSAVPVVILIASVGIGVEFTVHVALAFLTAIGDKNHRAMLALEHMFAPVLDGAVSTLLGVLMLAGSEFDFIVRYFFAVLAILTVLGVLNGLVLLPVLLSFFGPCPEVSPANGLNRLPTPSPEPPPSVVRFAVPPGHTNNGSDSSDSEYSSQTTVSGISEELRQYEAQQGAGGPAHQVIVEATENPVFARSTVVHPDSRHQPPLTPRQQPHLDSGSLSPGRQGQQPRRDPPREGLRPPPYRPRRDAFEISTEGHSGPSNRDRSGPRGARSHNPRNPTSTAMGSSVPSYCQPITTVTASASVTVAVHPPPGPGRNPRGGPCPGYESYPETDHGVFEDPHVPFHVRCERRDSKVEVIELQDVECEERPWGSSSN

B1: mouse Ptch1 (pcDNA3-mPtch1) (receptor, UniProt Q61115 1-1434)
chain: T2 chain
B2: Gas1 (Growth arrest-specific gene 1), endogenous, Q01721 39-315 (receptor)
chain: LAHGRRLICWQALLQCQGEPDCSYAYSQYAEACAPVLAQRGGADAPGPAGAFPASAASSPRWRCPSHCISALIQLNHTRRGPALEDCDCAQDEHCRSTKRAIEPCLPRTSSVGPGAGAGSVMGCTEARRRCDRDSRCNLALSRYLAYCGKLFNGLRCTDECRAVIEDMLAVPKAALLNDCVCDGLERPICESVKENMARLCFGPDASNGPGSSGSDGGLDDYYDEEYDDEQRAGAAGGEQPLDDDDGLARPGGGAAAAGGRGDLPHGPGRRSSSSGS

Assays:
[1] = biological target: T1, Boc (bioregional Cdon-binding protein), endogenous (mouse (endogenous in NIH3T3)); test: co-IP; NIH3T3/Cas9 Ptch1 KO cells transfected with mouse Ptch1, stimulated with Shh for 24 h; IP of Ptch1 and reciprocal IP of endogenous Boc, Western blot
[2] = biological target: T1, Boc (bioregional Cdon-binding protein), endogenous (mouse (endogenous in NIH3T3)); test: co-IP; NIH3T3/Cas9 Ptch1 KO cells transfected with mouse Ptch1, unstimulated and 40 min after Shh (partial release at 40 min); IP of Ptch1 and reciprocal IP of endogenous Boc, Western blot
[3] = biological target: T2, mouse Ptch1 (pcDNA3-mPtch1) (mouse), …; test: as above; details: remark: other sources report otherwise
[4] = biological target: T2, mouse Ptch1 (pcDNA3-mPtch1) (mouse), …; test: co-IP; NIH3T3/Cas9 Ptch1 KO cells transfected with mouse Ptch1, stimulated with Shh for 24 h; IP of Ptch1 and reciprocal IP of endogenous Boc, Western blot; details: remark: other sources report otherwise

| Binder | binding [1] | binding [2] | binding [3] | binding [4] |
| --- | --- | --- | --- | --- |
| B1 | no binding (condition: after Shh for 24 h) | binds | – | – |
| B2 | – | – | no binding | no binding |
